No constants are given. Whether binding was seen depends on the method and setting. In cells and extracts the contact can be indirect. Some results given as binding are weak or reduced against the parent protein; the word gives no strength. For part of these data: Tags and fused reporters may be left off the sequences shown.
Legend:
[1] = target: T1, DEAF-1 EGFP fusion protein (UniProt O75398); test: co-IP; SW1353 lysate over expressing DEAF-1 EGFP, immunoprecipitated with an EGFP antibody, magnetic protein A beads, immunoblot of endogenous partners
T1 sequence: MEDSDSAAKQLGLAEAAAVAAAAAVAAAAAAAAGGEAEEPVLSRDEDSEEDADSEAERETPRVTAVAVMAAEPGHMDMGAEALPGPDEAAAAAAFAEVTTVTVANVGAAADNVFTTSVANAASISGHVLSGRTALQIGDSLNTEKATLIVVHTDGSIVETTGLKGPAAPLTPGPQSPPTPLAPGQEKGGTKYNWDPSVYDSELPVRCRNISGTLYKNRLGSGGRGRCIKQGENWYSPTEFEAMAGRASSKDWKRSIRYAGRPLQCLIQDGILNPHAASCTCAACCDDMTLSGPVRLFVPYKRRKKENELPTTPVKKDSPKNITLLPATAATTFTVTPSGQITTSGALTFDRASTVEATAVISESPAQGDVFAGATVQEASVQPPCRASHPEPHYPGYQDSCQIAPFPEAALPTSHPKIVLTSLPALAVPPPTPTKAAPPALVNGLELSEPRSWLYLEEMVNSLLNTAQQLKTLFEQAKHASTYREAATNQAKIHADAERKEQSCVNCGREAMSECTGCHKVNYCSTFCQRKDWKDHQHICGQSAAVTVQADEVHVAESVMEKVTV

Sequences of proteins named here, by UniProt entry; tags and fusion partners are left off.
UniProt P08047: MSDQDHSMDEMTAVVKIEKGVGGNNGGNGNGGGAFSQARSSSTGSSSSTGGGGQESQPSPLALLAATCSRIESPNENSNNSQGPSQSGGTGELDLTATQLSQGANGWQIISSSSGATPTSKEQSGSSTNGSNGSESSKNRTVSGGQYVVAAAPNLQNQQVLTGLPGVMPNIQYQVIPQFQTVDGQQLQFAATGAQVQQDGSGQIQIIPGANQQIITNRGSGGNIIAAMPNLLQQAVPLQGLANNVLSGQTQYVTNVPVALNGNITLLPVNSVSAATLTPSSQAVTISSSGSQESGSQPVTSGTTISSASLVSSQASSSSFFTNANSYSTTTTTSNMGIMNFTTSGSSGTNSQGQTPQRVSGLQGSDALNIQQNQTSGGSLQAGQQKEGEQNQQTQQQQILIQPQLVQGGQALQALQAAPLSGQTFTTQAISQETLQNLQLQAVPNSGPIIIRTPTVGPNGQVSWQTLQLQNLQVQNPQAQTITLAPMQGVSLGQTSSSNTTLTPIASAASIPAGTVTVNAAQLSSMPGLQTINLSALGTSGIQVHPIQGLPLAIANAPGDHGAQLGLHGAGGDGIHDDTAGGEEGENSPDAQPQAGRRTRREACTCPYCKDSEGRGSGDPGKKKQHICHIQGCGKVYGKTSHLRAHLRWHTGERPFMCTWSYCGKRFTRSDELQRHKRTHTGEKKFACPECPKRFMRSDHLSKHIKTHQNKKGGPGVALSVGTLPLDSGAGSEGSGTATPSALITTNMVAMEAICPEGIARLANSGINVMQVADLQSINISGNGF
UniProt Q02447: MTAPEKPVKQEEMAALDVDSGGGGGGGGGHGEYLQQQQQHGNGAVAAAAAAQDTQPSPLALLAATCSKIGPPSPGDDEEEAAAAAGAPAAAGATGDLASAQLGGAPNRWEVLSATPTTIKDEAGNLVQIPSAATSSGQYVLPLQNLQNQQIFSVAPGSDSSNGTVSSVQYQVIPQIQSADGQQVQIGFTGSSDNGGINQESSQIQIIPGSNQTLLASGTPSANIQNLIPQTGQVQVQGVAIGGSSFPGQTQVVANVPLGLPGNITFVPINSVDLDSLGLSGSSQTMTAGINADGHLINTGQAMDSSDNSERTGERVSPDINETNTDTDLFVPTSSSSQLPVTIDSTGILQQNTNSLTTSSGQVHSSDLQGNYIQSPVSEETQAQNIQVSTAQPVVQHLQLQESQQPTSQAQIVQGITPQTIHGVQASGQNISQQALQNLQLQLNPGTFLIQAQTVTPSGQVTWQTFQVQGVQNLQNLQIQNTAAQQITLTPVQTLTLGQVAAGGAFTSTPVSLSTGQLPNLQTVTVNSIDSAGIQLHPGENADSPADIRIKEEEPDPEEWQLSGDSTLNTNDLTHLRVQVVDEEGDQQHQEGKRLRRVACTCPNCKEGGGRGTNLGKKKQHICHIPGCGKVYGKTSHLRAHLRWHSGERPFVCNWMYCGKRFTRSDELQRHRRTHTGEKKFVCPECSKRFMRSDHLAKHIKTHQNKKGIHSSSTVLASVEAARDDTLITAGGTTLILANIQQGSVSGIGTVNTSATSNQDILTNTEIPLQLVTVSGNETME

[2] = target: Sp1 (human (endogenous in SW1353)) (UniProt P08047); test: co-IP; untransfected SW1353 nuclear extract (200 ug, diluted 1 in 5 in high salt lysis buffer), 10 ug antibody to the endogenous bait overnight at 4 C, magnetic protein A beads, immunoblot
[3] = target: Sp3 (human (endogenous in SW1353)) (UniProt Q02447); test: as above

In the case of Sp3 (from UniProt Q02447 1-781), the binding [1] is reported as “binds” and the binding [2] is reported as “binds”.

For Sp1 (from UniProt P08047 1-785), the binding [1] was “binds” and the binding [3] was “binds”.

B1: DEAF-1 (protein, UniProt O75398 1-565)
chain: MEDSDSAAKQLGLAEAAAVAAAAAVAAAAAAAAGGEAEEPVLSRDEDSEEDADSEAERETPRVTAVAVMAAEPGHMDMGAEALPGPDEAAAAAAFAEVTTVTVANVGAAADNVFTTSVANAASISGHVLSGRTALQIGDSLNTEKATLIVVHTDGSIVETTGLKGPAAPLTPGPQSPPTPLAPGQEKGGTKYNWDPSVYDSELPVRCRNISGTLYKNRLGSGGRGRCIKQGENWYSPTEFEAMAGRASSKDWKRSIRYAGRPLQCLIQDGILNPHAASCTCAACCDDMTLSGPVRLFVPYKRRKKENELPTTPVKKDSPKNITLLPATAATTFTVTPSGQITTSGALTFDRASTVEATAVISESPAQGDVFAGATVQEASVQPPCRASHPEPHYPGYQDSCQIAPFPEAALPTSHPKIVLTSLPALAVPPPTPTKAAPPALVNGLELSEPRSWLYLEEMVNSLLNTAQQLKTLFEQAKHASTYREAATNQAKIHADAERKEQSCVNCGREAMSECTGCHKVNYCSTFCQRKDWKDHQHICGQSAAVTVQADEVHVAESVMEKVTV
In the case of B1, the binding [2] is reported as “binds” and the binding [3] is reported as “binds”.
